This passage reports T/C results from PubChem BioAssay AID256 (DTP/NCI, 2004).

SMILES strings stand for the structures. The list is a part of this screen's results and no random one: its compounds were picked by chemical class. Other doses and runs of a compound may be missing. T/C is the treated group as % of the vehicle group. Where survival is the endpoint, the PubChem record calls one and a half times the control and up active, and a quarter to a half above the control has no call in these data; cut-offs in other NCI protocols can differ. Schedules are NCI's codes, taken here to give the interval after Q, in days (D) or hours (H), and the number of doses after X. Some entries show no survivor count and are marked so; the dose need not have been tolerated. Some entries were tested several times; the results are listed from low to high.

This test concerns CD2F1 mice, L1210 leukemia ip, survival T/C. Nature of the test: NCI In Vivo Anticancer Drug Screen. Data for tumor model L1210 Leukemia (intraperitoneal) in CD2F1 (CDF1) mice. Conditions: T/C endpoint: median survival time, schedule: Q01DX009 (ip), vehicle: saline + alcohol, higher T/C = longer survival. In a few lines: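 Each value reflects a quotient of treated over vehicle control outcomes in mice with a transplanted tumor.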

Regarding `CC(O)C1/C=C/C=C/C(=O)OC2CC3OC4C5OC5(C)C(O)CC4(COC(=O)C(O)C(C)CCO1)C2(C)C31CO1` (stereo not given), the T/C (dose: 2.5 mg/kg/injection) was 134 % of control [survivor count not shown]; the T/C (dose: 5.0 mg/kg/injection) was 139 [survivor count not shown] and 141 % of control [survivor count not shown]; the T/C (dose: 10.0 mg/kg/injection) is 147 [survivor count not shown] and 150 % of control [survivor count not shown]; the T/C (dose: 20.0 mg/kg/injection) was 168 [survivor count not shown] and 176 % of control [survivor count not shown]; the T/C (dose: 40.0 mg/kg/injection) was 141 [survivor count not shown] and 190 % of control [survivor count not shown].
